The values that follow come from publication PMC9576935.

Protein sequences, listed by entry. Tags and fused reporters are not part of them. Lines headed by an entry give the natural chain unless they say otherwise; changes in a name come on top.
UniProt P16220: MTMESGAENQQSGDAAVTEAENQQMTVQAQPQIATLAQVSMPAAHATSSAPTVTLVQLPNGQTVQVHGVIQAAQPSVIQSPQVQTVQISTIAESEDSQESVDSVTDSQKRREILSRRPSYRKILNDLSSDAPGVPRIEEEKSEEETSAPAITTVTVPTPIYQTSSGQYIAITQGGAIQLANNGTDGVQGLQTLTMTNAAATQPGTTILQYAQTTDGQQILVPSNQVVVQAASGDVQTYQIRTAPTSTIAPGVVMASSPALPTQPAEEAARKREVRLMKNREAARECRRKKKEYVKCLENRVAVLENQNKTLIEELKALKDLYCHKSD

The target of the series is CREB1 (recombinant, Ni-affinity purified) (UniProt P16220). Nature of the series: EMSA. The settings on record: LightShift EMSA kit: 2 ul 5x binding buffer, 6 ul CREB1, 1 ul probe, 25 C, 20 min; salt and pH not stated; recombinant protein. A general note: In EMSA bound probe runs differently from free probe, usually more slowly.

For at least one entry, the source does not settle the construct or the ends of the probe. The comparison behind a weaker result is the experiment's own reference, which may not be listed here.

As to “TGGATGTCTTTCTCAGCATGAAATTAAA (double strand) [MITF-mut probe]”, the binding result is on record as “binds more weakly”.
